Patent publication US9377472B2, “Biological complex specific for Alzheimer's disease detection in vitro and use thereof” (Amoneta Diagnostics, priority 2012, dated 2016)

How the values were obtained:
[1] = test system: red blood cells; test: Fluorescent probe A1 binding on purified RBC of TAS/TPM vs wild type mice, spectrofluorimeter spectral index, ROC; format: cell-based, mouse; details: ROC curve FIG. 3
[2] = test system: red blood cells; test: Fluorescent probe A1 binding on purified RBC of TAS/TPM vs wild type mice, flow cytometer, ROC; format: cell-based, mouse; details: ROC curve FIG. 4; for Sensitivity / Specificity: cut off 2%

Substance: A1: specific fluorescent probe consisting of Aβ1-42 labeled on lysine 16 with a Bodipy residue
- Area under curve ([1]; mice aged 4 months): 55%
- Sensitivity ([1]; mice aged 4 months): 50%
- Specificity ([1]; mice aged 4 months): 70%
- Area under curve ([1]; mice aged 14 months): 85%
- Sensitivity ([1]; mice aged 14 months): 85%
- Specificity ([1]; mice aged 14 months): 73%
- Area under curve ([2]; mice 9-12 months): 54.7%
- Sensitivity ([2]; mice 9-12 months): 71.4%
- Specificity ([2]; mice 9-12 months): 52.3%
- Area under curve ([2]; mice 19-22 months): 67%
- Sensitivity ([2]; mice 19-22 months): 64.3%
- Specificity ([2]; mice 19-22 months): 83.3%
